System: Jurkat tumors (100%-0% SSTR2+)
Experiment: PET/CT DOTATOC uptake by subcutaneous Jurkat T cell xenografts (0-100% SSTR2+)
Format: in vivo, NSG mice
Description: All animal experiments were performed in strict accordance with the recommendations in the Guide for the Care and Use of Laboratory Animals of the National Institutes of Health. This study's animal protocol was approved by the Institutional Laboratory Animal Use and Care Committee of Weill Cornell Medicine. SSTR2 expressing Jurkats were spiked with increasing numbers of non-transduced Jurkats to derive distinct cultures containing defined percentages of SSTR2 expression ranging from 100-0%. For each subcutaneous xenograft, 5×10^6 total cells were resuspended in 100 μl Matrigel Basement Membrane Matrix (Corning) and injected bilaterally into nonobese diabetic (NOD)/LtSz Prkdc^scid I12rg^tm1Wj1/J (NSG) mice (Jackson Laboratory). Measurements of tumor size were made using an external digital caliper. Tumor volume was calculated by using the modified ellipsoid formula 1/2(Length×Width^2). Length was measured as the longer dimension. Each dimensional measurement was rounded to the nearest 0.5 cm.
Projection data was acquired in a cone-beam geometry with approximately […] steps at 1 degree angular increments. At least 10 million coincidence events were acquired for PET per study using a 250 to 750 keV energy window and a 6 ns timing window. […] To compute DOTATOC uptake by Jurkat tumors, the ellipsoidal ROIs (Amide) were placed to enclose subcutaneous tumors that closely match overall tumor size and shape. For systemic 8505C tumor models, ellipsoids were drawn separately on the left and right sides of lungs to enclose much of five lobes of mouse lungs. The % ID/cm^3 values, computed relative to the counts in a reference tube, can be approximated to a standard uptake value (SUV^61) by dividing % ID/cm^3 by four, assuming injection efficiency of 100% and 25 g of body weight. Visualization and analyses of PET/CT images were performed using Amide (amide.sourceforge.net).

[1] = tumors larger than 65 mm^3, cutoff 1.1% ID/cm^3, 1% SSTR2+

In the case of `C[C@@H](O)[C@@H]1NC(=O)[C@H](CCCCN)NC(=O)[C@@H](Cc2c[nH]c3ccccc23)NC(=O)[C@H](Cc2ccc(O)cc2)NC(=O)[C@@H](NC(=O)[C@@H](Cc2ccccc2)NC(=O)CN2CCN(CC(=O)O)CCN(CC(=O)O)CCN(CC(=O)O)CC2)CSSC[C@@H](C(=O)N[C@H](CO)[C@@H](C)O)NC1=O` [DOTATOC, 1,4,7,10-tetraazacyclododecane-N^I,N^II,N^III,N^IIII-tetraacetic acid (D)-Phe^1-Tyr^3-octreotide], the specificity (tumors below 65 mm^3, cutoff 0.6% ID/cm^3) was 95%, the “detection sensitivity (% true positive rates)” value (tumors below 65 mm^3, cutoff 0.6% ID/cm^3, 1% SSTR2+) was 54% and the “detection sensitivity (% true positive rates)” value (tumors below 65 mm^3, cutoff 0.6% ID/cm^3, 10% SSTR2+) was 69%. The “detection sensitivity (% true positive rates)” value (tumors below 65 mm^3, cutoff 0.6% ID/cm^3, 100% SSTR2+) was 95%, the sensitivity [1] was 87% and the specificity [1] was 95%. The sensitivity (tumors larger than 65 mm^3, cutoff 1.1% ID/cm^3, SSTR2+ T cell density at or above 10%) was over 95%.
